Where “and” joins values, the source holds several entries; their conditions need not be identical. Equal values may be shown once.
Columns and labels:
[1] = Plasma trough pharmacokinetics of sorafenib and riluzole (LC-MS/MS); conditions: for Riluzole trough plasma concentration, D2 Predose / Riluzole trough plasma concentration, D8/9 Predose / Riluzole trough plasma concentration, D10 Predose / Riluzole trough plasma concentration, D15 Predose: individual patients; for Riluzole Cmin,ss Geometric mean (CV%): average trough level on D8, D10 and D15
Procedure: Following centrifugation for 10 min at 1,500 × g at 4°C within 30 min of blood collection, the plasma was aliquoted and stored at −80°C.

[2] = Drug related adverse events (CTCAE version 4.0); conditions: drug related AE, Grade ≥3; n=35
[3] = Dose Level 1: Sorafenib 200 mg qd and Riluzole 100 mg BID
[4] = Dose Level 2: Sorafenib 200 mg BID and Riluzole 100 mg BID
[5] = Dose Level 3: Sorafenib 400 mg AM, 200 mg PM and Riluzole 100 mg BID
[6] = Dose Level 4: Sorafenib 400 mg BID and Riluzole 100 mg BID
[7] = all dose levels, Riluzole 100 mg BID with sorafenib
[8] = all dose levels, Riluzole 100 mg BID with sorafenib, listed as Riluzole

SMILES: Nc1nc2ccc(OC(F)(F)F)cc2s1 [riluzole]
- riluzole accumulation through multiple doses ([1]; 100 mg BID with sorafenib, steady state after eight days): no riluzole accumulation was observed
- riluzole Cmin,ss, geomean ([1]; DL3, Group 1 ("high" sorafenib Cmin,ss >4 μg/mL; 14 patients)): 82.1 ng/mL
- riluzole Cmin,ss, geomean ([1]; DL3, Group 2 ("low" sorafenib Cmin,ss <4 μg/mL; 6 patients)): 74.8 ng/mL
- Riluzole trough plasma concentration, D2 Predose, Geomean (CV%) [1, 3]: 18.92 (92) ng/mL
- Riluzole trough plasma concentration, D8/9 Predose, Geomean (CV%) [1, 3]: 44.79 (50) ng/mL
- Riluzole trough plasma concentration, D10 Predose, Geomean (CV%) [1, 3]: 26.27 (80) ng/mL
- Riluzole trough plasma concentration, D15 Predose, Geomean (CV%) [1, 3]: 31.11 (72) ng/mL
- Riluzole trough plasma concentration, D2 Predose [1, 3]: 57.32 ng/mL and 10.74 ng/mL and 3.33 ng/mL and 62.45 ng/mL
- Riluzole trough plasma concentration, D8/9 Predose [1, 3]: 78.14 ng/mL and 62.61 ng/mL and 22.29 ng/mL and 36.89 ng/mL
- Riluzole trough plasma concentration, D10 Predose [1, 3]: 68.6 ng/mL and 51.11 ng/mL and 15.26 ng/mL and 8.9 ng/mL
- Riluzole trough plasma concentration, D15 Predose [1, 3]: 75.67 ng/mL and 36.97 ng/mL and 13.85 ng/mL and 24.17 ng/mL
- Riluzole trough plasma concentration, D2 Predose, Geomean (CV%) [1, 4]: 58.35 (82) ng/mL
- Riluzole trough plasma concentration, D8/9 Predose, Geomean (CV%) [1, 4]: 42.93 (50) ng/mL
- Riluzole trough plasma concentration, D10 Predose, Geomean (CV%) [1, 4]: 45.97 (68) ng/mL
- Riluzole trough plasma concentration, D15 Predose, Geomean (CV%) [1, 4]: 56.72 (79) ng/mL
- Riluzole trough plasma concentration, D2 Predose [1, 4]: 35.07 ng/mL and 95.29 ng/mL and 45.1 ng/mL and 42.18 ng/mL and 142.56 ng/mL and 26.84 ng/mL
- Riluzole trough plasma concentration, D8/9 Predose [1, 4]: 83.1 ng/mL and 69.82 ng/mL and 35.73 ng/mL and 28.19 ng/mL and 47.99 ng/mL and 22.33 ng/mL
- Riluzole trough plasma concentration, D10 Predose [1, 4]: 115.98 ng/mL and 62.36 ng/mL and 39.19 ng/mL and 36.03 ng/mL and 40.55 ng/mL and 20.11 ng/mL
- Riluzole trough plasma concentration, D15 Predose [1, 4]: 170.15 ng/mL and 101.4 ng/mL and 48.51 ng/mL and 35.45 ng/mL and 30.81 ng/mL and 36.43 ng/mL
- Riluzole trough plasma concentration, D2 Predose, Geomean (CV%) [1, 5]: 59.88 (97) ng/mL
- Riluzole trough plasma concentration, D8/9 Predose, Geomean (CV%) [1, 5]: 66.01 (109) ng/mL
- Riluzole trough plasma concentration, D10 Predose, Geomean (CV%) [1, 5]: 77.34 (175) ng/mL
- Riluzole trough plasma concentration, D15 Predose, Geomean (CV%) [1, 5]: 67.50 (119) ng/mL
- Riluzole trough plasma concentration, D2 Predose [1, 5]: 55.95 ng/mL and 47.37 ng/mL and 28.71 ng/mL and 73.18 ng/mL and 32.02 ng/mL and 30.21 ng/mL and 47.71 ng/mL and 53.1 ng/mL and 56.61 ng/mL and 37.24 ng/mL and 64.09 ng/mL and 19.62 ng/mL and 58.86 ng/mL and 66.84 ng/mL and 18 ng/mL and 41.51 ng/mL and 127.44 ng/mL and 295.14 ng/mL and 250.15 ng/mL and 253.77 ng/mL and 40.63 ng/mL and 119.96 ng/mL
- Riluzole trough plasma concentration, D8/9 Predose [1, 5]: 62.44 ng/mL and 81.2 ng/mL and 455.25 ng/mL and 17.87 ng/mL and 116.11 ng/mL and 43.44 ng/mL and 32.96 ng/mL and 32.87 ng/mL and 90.92 ng/mL and 43.12 ng/mL and 47.28 ng/mL and 18.2 ng/mL and 67.09 ng/mL and 96.47 ng/mL and 83.41 ng/mL and 54.31 ng/mL and 815.72 ng/mL and 6.14 ng/mL and 149.76 ng/mL and 194.16 ng/mL and 57.58 ng/mL
- Riluzole trough plasma concentration, D10 Predose [1, 5]: 69.2 ng/mL and 142.35 ng/mL and 14.45 ng/mL and 127.21 ng/mL and 47.08 ng/mL and 61.84 ng/mL and 47.42 ng/mL and 39.41 ng/mL and 52.51 ng/mL and 13.19 ng/mL and 60.1 ng/mL and 89.82 ng/mL and 76.9 ng/mL and 48.4 ng/mL and 703.83 ng/mL and < LOD and 1368.52 ng/mL and 128.03 ng/mL and 57.99 ng/mL
- Riluzole trough plasma concentration, D15 Predose [1, 5]: 71.35 ng/mL and 60.98 ng/mL and 20.22 ng/mL and 124.67 ng/mL and 49.06 ng/mL and 47.37 ng/mL and 66.2 ng/mL and 68.14 ng/mL and 7.02 ng/mL and 76.1 ng/mL and 85.03 ng/mL and 92.65 ng/mL and 40.12 ng/mL and 882.52 ng/mL and < LOD and 1014.41 ng/mL and 135.37 ng/mL and 80.05 ng/mL
- Riluzole trough plasma concentration, D2 Predose, Geomean (CV%) [1, 6]: 29.03 (52) ng/mL
- Riluzole trough plasma concentration, D8/9 Predose, Geomean (CV%) [1, 6]: 23.10 (35) ng/mL
- Riluzole trough plasma concentration, D10 Predose, Geomean (CV%) [1, 6]: 29.86 (36) ng/mL
- Riluzole trough plasma concentration, D15 Predose, Geomean (CV%) [1, 6]: 19.53 (61) ng/mL
- Riluzole trough plasma concentration, D2 Predose [1, 6]: 47.38 ng/mL and 36.46 ng/mL and 14.16 ng/mL
- Riluzole trough plasma concentration, D8/9 Predose [1, 6]: 31.53 ng/mL and 25.95 ng/mL and 15.07 ng/mL
- Riluzole trough plasma concentration, D10 Predose [1, 6]: 37.2 ng/mL and 38.88 ng/mL and 18.41 ng/mL
- Riluzole trough plasma concentration, D15 Predose [1, 6]: 33.44 ng/mL and 7.23 ng/mL and 30.81 ng/mL
- Riluzole Cmin,ss Geometric mean (CV%) ([1]; Level 1 (n = 4)): 34.93 (64) ng/mL
- Riluzole Cmin,ss Geometric mean (CV%) ([1]; Level 2 (n = 6)): 48.84 (65) ng/mL
- Riluzole Cmin,ss Geometric mean (CV%) ([1]; Level 3 (n = 22)): 79.72 (153) ng/mL
- Riluzole Cmin,ss Geometric mean (CV%) ([1]; Level 4 (n = 3), sorafenib 400 mg BID): 25.98 ng/mL
- Riluzole Cmin,ss Geometric mean (CV%) ([1]; Level 4 (n = 3), sorafenib 400 mg BID, listed as Riluzole): 25.98 (25) ng/mL
- Riluzole trough plasma concentration, D2 Predose, Total Geomean (CV%) [1, 7]: 47.15 (71) ng/mL
- Riluzole trough plasma concentration, D2 Predose, total Median [1, 7]: 47.37 ng/mL
- Riluzole trough plasma concentration, D8/9 Predose, Total Geomean (CV%) [1, 7]: 52.57 (112) ng/mL
- Riluzole trough plasma concentration, D8/9 Predose, total Median [1, 7]: 51.15 ng/mL
- Riluzole trough plasma concentration, D10 Predose, Total Geomean (CV%) [1, 7]: 55.83 ng/mL
- Riluzole trough plasma concentration, D10 Predose, total Median [1, 7]: 52.51 ng/mL
- Riluzole trough plasma concentration, D15 Predose, Total Geomean (CV%) [1, 7]: 51.47 ng/mL
- Riluzole trough plasma concentration, D15 Predose, total Median [1, 7]: 49.06 ng/mL
- Riluzole trough plasma concentration, D10 Predose, Total Geomean (CV%) [1, 8]: 55.83 (103) ng/mL
- Riluzole trough plasma concentration, D15 Predose, Total Geomean (CV%) [1, 8]: 51.47 (177) ng/mL
- inter-individual variability in plasma riluzole levels, CV in the geometric mean ([1]; among individuals in various sorafenib dose cohorts): 35% to 175%
- riluzole Cmin,ss, range ([1]; in vivo): 46 to 793 ng/mL
- Abdominal Pain [2]: 1
- Alkaline Phosphatase Increase [2]: 0
- Anemia [2]: 0
- Anorexia [2]: 0
- Arthralgia [2]: 0
- Cardiac troponin I increased [2]: 0
- Congestive Heart Failure [2]: 0
- Fatigue [2]: 1
- Hypertension [2]: 0
- Hypokalemia [2]: 0
- Hyponatremia [2]: 0
- Hypophosphatemia [2]: 0
- Lipase Increase [2]: 0
- Lymphocyte Count Decrease [2]: 0
- Maculopapular Rash [2]: 0
- Myocardial infarction [2]: 0
- Neutrophil count decrease [2]: 0
- Palmar-plantar erythrodysesthesia syndrome [2]: 0
- Pruritus [2]: 0
- White Blood Cell Decreased [2]: 0
- Wound complication [2]: 0
